Patent US20260248972A1, “DUAL RECEPTOR TARGETING RADIOLIGANDS AND USES THEREOF RELATED APPLICATIONS” (priority 2022, published 2026)
Not every detail of the peptide structures is certain; ends, links or a residue may be inferred.

By UniProt entry, the sequences of proteins in these tests, tags left out. Where a name states a change or a piece, a line headed by the entry shows the natural chain unless it says otherwise.
UniProt P30680: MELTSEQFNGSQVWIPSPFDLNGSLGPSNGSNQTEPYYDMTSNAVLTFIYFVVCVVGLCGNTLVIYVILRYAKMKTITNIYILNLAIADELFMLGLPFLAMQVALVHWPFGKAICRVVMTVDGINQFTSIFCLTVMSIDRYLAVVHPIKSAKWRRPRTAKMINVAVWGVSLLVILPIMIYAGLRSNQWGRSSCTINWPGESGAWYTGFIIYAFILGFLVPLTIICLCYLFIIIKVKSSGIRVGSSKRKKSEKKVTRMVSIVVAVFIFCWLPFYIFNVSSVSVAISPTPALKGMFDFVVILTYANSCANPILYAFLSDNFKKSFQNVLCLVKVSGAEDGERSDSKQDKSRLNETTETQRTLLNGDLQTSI

Tests used:
SSTR2 = target: T1, SSTR2 (Rattus norvegicus, UniProt P30680); test: Competitive cell-binding assay on AR42J cells with 125I-C1 as competitive ligand; conditions: based on mean IC50, C-1 = 1.00
T1 construct: host or cells: AR42J cells
Method: (§1) AR42J cells (ATCC) were maintained in RPMI-1640 medium (Gibco) supplemented with 15% fetal bovine serum (Gibco) and 1% penicillin-streptomycin (BI) at 37° C. in a humidified incubator with 5% CO2. The culture medium was replaced with fresh medium every 2-3 days. Experiments were performed with cells at 70-80% confluence.
(§2) Binding Affinity Tested by Using ^125I-Labeled Competitive Ligands.
(§3) The binding affinities of test compounds were determined by a competitive cell-binding assay using ^125I-C1 and ^125I-C3 as the competitive ligand. The suspended AR42J cells at a density of 1~3×10^6 cells/mL in binding buffer (RPMI-1640 medium supplemented with 0.25% bovine serum albumin) were transferred to a MultiScreen-DV Filter Plate (Millipore) with 100 μL per well except the blank group where the binding buffer was used instead. The cells were then incubated with ^125I-C1 and ^125I-C3 (0.02 μCi/well) in the presence of increasing concentrations (0-10000 nM) of test compounds at 37° C. for 1 h (n=3). The final volume in each well was maintained at 200 μL and insufficient volume was adjusted by the binding buffer. […] The filters were collected, and their radioactivity were individually measured by γ counter (2480 WIZARD2, PerkinElmer). […]

CCK2R = target: T2, CCK2R (Rattus norvegicus, UniProt P30553); test: Competitive cell-binding assay on AR42J cells with 125I-C3 as competitive ligand; conditions: based on mean IC50, C-2 = 1.00
T2 construct: host or cells: AR42J cells
T2 sequence (P30553 1-452): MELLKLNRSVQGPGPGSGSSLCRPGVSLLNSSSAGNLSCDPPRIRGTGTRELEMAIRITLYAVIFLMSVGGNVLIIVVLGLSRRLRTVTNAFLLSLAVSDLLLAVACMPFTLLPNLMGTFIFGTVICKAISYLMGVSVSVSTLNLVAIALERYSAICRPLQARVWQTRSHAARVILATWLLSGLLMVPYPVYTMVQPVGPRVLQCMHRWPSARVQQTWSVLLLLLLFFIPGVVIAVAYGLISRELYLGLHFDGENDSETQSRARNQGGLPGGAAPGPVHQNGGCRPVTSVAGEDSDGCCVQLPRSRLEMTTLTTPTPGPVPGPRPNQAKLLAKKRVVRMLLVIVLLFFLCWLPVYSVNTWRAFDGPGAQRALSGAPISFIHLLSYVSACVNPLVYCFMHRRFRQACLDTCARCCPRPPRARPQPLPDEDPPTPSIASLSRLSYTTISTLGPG
Method: as §1, §2, §3

Structure (SMILES): C[C@@H](O)[C@H](NC(=O)[C@@H]1CSSC[C@H](NC(=O)[C@@H](Cc2ccccc2)NC(=O)COCCOCCNC(=O)[C@H](CCCCNC(=O)CC[C@H](NC(=O)CNC(=O)c2cccc(NC(=O)N[C@@H]3CN(C4CCCCC4)c4ccccc4N(CC(=O)C(C)(C)C)C3=O)c2)C(=O)O)NC(=O)COCCOCCNC(=O)COCCOCCNC(=O)COCCOCCNC(=O)COCCOCCNC(=O)COCCOCCNC(=O)CC[C@H](NC(=O)CN2CCN(CC(=O)O)CCN(CC(=O)O)CCN(CC(=O)O)CC2)C(=O)O)C(=O)N[C@@H](Cc2ccc(O)cc2)C(=O)N[C@H](Cc2c[nH]c3ccccc23)C(=O)N[C@@H](CCCCN)C(=O)N[C@@H]([C@@H](C)O)C(=O)N1)C(=O)O [Compound I-22, DOTA-gE-OEG-OEG-OEG-OEG-OEG-K(-gE-G-Z360)-OEG-f[CYwKTC]T-OH)]
- Relative Binding Affinity SSTR2 (SSTR2): 2.31
- Relative Binding Affinity CCK2R (CCK2R): 2.7
